Results are given in words; binding and its absence hold for the method and conditions named. Binding seen in cells or lysates may run through a third protein. Some results given as binding are weak or reduced against the parent protein; the word gives no strength.

Protein sequences, listed by entry. Tags and fused reporters are not part of them.
UniProt Q68CP9: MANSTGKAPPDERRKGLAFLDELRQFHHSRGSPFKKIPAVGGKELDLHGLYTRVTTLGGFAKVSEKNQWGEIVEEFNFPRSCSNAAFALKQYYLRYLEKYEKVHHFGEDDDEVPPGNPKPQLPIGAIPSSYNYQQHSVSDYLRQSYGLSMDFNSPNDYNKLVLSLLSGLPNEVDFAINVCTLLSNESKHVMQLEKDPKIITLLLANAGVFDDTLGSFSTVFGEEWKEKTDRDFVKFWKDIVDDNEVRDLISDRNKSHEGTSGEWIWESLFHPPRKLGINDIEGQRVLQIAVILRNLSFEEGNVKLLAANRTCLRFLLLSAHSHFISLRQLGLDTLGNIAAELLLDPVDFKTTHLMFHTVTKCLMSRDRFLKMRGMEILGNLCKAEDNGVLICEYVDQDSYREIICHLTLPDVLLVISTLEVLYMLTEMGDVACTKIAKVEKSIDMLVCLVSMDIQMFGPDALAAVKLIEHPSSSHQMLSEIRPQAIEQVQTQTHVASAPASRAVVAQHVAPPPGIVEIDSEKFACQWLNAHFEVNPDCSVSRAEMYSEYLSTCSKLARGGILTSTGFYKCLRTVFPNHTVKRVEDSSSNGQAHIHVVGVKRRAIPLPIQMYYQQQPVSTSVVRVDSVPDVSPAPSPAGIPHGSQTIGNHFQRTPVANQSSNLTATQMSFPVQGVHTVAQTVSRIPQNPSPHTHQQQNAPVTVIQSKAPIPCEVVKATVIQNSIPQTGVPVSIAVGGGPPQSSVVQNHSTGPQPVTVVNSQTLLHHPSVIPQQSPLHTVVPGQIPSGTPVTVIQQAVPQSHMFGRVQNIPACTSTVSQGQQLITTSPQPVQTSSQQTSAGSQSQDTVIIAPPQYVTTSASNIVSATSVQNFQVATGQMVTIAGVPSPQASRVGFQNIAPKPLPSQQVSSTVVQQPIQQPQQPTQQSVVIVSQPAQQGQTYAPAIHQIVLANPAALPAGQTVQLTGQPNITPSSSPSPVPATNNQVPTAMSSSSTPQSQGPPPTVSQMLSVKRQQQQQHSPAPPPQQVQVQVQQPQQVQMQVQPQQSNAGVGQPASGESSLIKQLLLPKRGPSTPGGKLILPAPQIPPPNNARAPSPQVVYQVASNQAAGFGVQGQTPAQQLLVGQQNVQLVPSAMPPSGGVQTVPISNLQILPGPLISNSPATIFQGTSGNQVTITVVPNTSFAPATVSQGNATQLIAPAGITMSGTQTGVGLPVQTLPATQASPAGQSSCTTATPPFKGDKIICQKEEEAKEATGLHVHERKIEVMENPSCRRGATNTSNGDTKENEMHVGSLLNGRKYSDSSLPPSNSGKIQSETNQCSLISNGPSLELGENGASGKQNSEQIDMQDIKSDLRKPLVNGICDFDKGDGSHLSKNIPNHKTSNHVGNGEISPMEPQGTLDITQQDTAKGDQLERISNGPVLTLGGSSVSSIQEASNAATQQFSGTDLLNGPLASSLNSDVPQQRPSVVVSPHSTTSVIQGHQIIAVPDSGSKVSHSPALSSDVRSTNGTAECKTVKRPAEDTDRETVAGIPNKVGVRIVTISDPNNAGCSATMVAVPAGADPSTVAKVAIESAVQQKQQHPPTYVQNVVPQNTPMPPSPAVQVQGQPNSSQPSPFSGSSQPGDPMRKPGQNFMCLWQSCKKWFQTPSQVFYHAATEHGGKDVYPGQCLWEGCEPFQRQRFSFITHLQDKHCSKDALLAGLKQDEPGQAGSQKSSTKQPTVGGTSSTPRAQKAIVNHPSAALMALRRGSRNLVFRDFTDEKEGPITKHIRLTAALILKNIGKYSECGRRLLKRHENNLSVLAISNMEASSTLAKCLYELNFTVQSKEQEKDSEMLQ

This assay concerns the target ARID2 (UniProt Q68CP9). Kind of assay: co-IP; in cells; cell line, bait and antibodies not stated.

B1: ERCC5 (protein, UniProt P28715 1-1186)
chain: MGVQGLWKLLECSGRQVSPEALEGKILAVDISIWLNQALKGVRDRHGNSIENPHLLTLFHRLCKLLFFRIRPIFVFDGDAPLLKKQTLVKRRQRKDLASSDSRKTTEKLLKTFLKRQAIKTAFRSKRDEALPSLTQVRRENDLYVLPPLQEEEKHSSEEEDEKEWQERMNQKQALQEEFFHNPQAIDIESEDFSSLPPEVKHEILTDMKEFTKRRRTLFEAMPEESDDFSQYQLKGLLKKNYLNQHIEHVQKEMNQQHSGHIRRQYEDEGGFLKEVESRRVVSEDTSHYILIKGIQAKTVAEVDSESLPSSSKMHGMSFDVKSSPCEKLKTEKEPDATPPSPRTLLAMQAALLGSSSEEELESENRRQARGRNAPAAVDEGSISPRTLSAIKRALDDDEDVKVCAGDDVQTGGPGAEEMRINSSTENSDEGLKVRDGKGIPFTATLASSSVNSAEEHVASTNEGREPTDSVPKEQMSLVHVGTEAFPISDESMIKDRKDRLPLESAVVRHSDAPGLPNGRELTPASPTCTNSVSKNETHAEVLEQQNELCPYESKFDSSLLSSDDETKCKPNSASEVIGPVSLQETSSIVSVPSEAVDNVENVVSFNAKEHENFLETIQEQQTTESAGQDLISIPKAVEPMEIDSEESESDGSFIEVQSVISDEELQAEFPETSKPPSEQGEEELVGTREGEAPAESESLLRDNSERDDVDGEPQEAEKDAEDSLHEWQDINLEELETLESNLLAQQNSLKAQKQQQERIAATVTGQMFLESQELLRLFGIPYIQAPMEAEAQCAILDLTDQTSGTITDDSDIWLFGARHVYRNFFNKNKFVEYYQYVDFHNQLGLDRNKLINLAYLLGSDYTEGIPTVGCVTAMEILNEFPGHGLEPLLKFSEWWHEAQKNPKIRPNPHDTKVKKKLRTLQLTPGFPNPAVAEAYLKPVVDDSKGSFLWGKPDLDKIREFCQRYFGWNRTKTDESLFPVLKQLDAQQTQLRIDSFFRLAQQEKEDAKRIKSQRLNRAVTCMLRKEKEAAASEIEAVSVAMEKEFELLDKAKGKTQKRGITNTLEESSSLKRKRLSDSKGKNTCGGFLGETCLSESSDGSSSEDAESSSLMNVQRRTAAKEPKTSASDSQNSVKEAPVKNGGATTSSSSDSDDDGGKEKMVLVTARSVFGKKRRKLRRARGRKRKT
For B1, the binding entry is reported as “binds”.

For the origin of these results see article PMC6775309.
